From US20230044278A1
No constants are given. Whether binding was seen depends on the method and setting. Some results given as binding are weak or reduced against the parent protein; the word gives no strength.

Experiments:
[1] = target: recombinant cynomolgus monkey (Macaca fascicularis) transferrin receptor 1 (cynomolgus monkey (Macaca fascicularis)); assay: ELISA, 230 pM to 500 nM of the Fab
[2] = target: recombinant cynomolgus monkey (Macaca fascicularis) transferrin receptor 1 (cynomolgus monkey (Macaca fascicularis)); assay: ELISA, plate-coated recombinant TfR1
[3] = target: recombinant cynomolgus monkey (Macaca fascicularis) transferrin receptor 1 (cynomolgus monkey (Macaca fascicularis)); assay: ELISA before and after 9 days at high temperature
[4] = target: recombinant cynomolgus monkey (Macaca fascicularis) transferrin receptor 1 (cynomolgus monkey (Macaca fascicularis)); assay: ELISA on plate-coated recombinant cynomolgus TfR1, fluorescent anti-(H+L) IgG secondary, relative fluorescent units

Binder | binding [1] | binding [2] | binding [3] | binding [4]
humanized anti-TfR Fab 3M12 (VH4/Vk3) (Fab, V domains shown) VH: QVQLQESGPGLVKPSQTLSLTCTVTGYSITSGYYWNWIRQPPGKGLEWIGYITFDGANNYNPSLKNRVSISRDTSKNQFSLKLSSVTAEDTATYYCTRSSYDYDVLDYWGQGTTVTVSS VL: DIQMTQSPSSLSASVGDRVTITCRASQDISNFLNWYQQKPGQPVKLLIYYTSRLHSGVPSRFSGSGSGTDFTLTISSLQPEDFATYYCQQGHTLPYTFGQGTKLEIKR | binds | binds | binds | binds
humanized anti-TfR Fab 3M12 (VH3/Vk2) (Fab, V domains shown) VH: QVQLQESGPGLVKPSQTLSLTCSVTGYSITSGYYWNWIRQPPGKGLEWMGYITFDGANNYNPSLKNRVSISRDTSKNQFSLKLSSVTAEDTATYYCTRSSYDYDVLDYWGQGTTVTVSS VL: DIQMTQSPSSLSASVGDRVTITCRASQDISNFLNWYQQKPGQPVKLLIYYTSRLHSGVPSRFSGSGSGTDFTLTISSLQPEDFATYFCQQGHTLPYTFGQGTKLEIKR |  | binds | binds | 
humanized anti-TfR Fab 3M12 (VH3/Vk3) (Fab, V domains shown) VH: QVQLQESGPGLVKPSQTLSLTCSVTGYSITSGYYWNWIRQPPGKGLEWMGYITFDGANNYNPSLKNRVSISRDTSKNQFSLKLSSVTAEDTATYYCTRSSYDYDVLDYWGQGTTVTVSS VL: DIQMTQSPSSLSASVGDRVTITCRASQDISNFLNWYQQKPGQPVKLLIYYTSRLHSGVPSRFSGSGSGTDFTLTISSLQPEDFATYYCQQGHTLPYTFGQGTKLEIKR |  | binds | binds | 
humanized anti-TfR Fab 3M12 (VH4/Vk2) (Fab, V domains shown) VH: QVQLQESGPGLVKPSQTLSLTCTVTGYSITSGYYWNWIRQPPGKGLEWIGYITFDGANNYNPSLKNRVSISRDTSKNQFSLKLSSVTAEDTATYYCTRSSYDYDVLDYWGQGTTVTVSS VL: DIQMTQSPSSLSASVGDRVTITCRASQDISNFLNWYQQKPGQPVKLLIYYTSRLHSGVPSRFSGSGSGTDFTLTISSLQPEDFATYFCQQGHTLPYTFGQGTKLEIKR |  | binds | binds | 
humanized anti-TfR Fab 5H12 (VH5-C33Y/Vk3) (Fab, V domains shown) VH: QVQLVQSGAEVKKPGASVKVSCKASGYSFTDYYINWVRQAPGQGLEWMGWIYPGSGNTRYSERFKGRVTITRDTSASTAYMELSSLRSEDTAVYYCAREDYYPYHGMDYWGQGTLVTVSS VL: DIVLTQSPDSLAVSLGERATINCRASESVDGYDNSFMHWYQQKPGQPPKLLIFRASNLESGVPDRFSGSGSRTDFTLTISSLQAEDVAVYYCQQSSEDPWTFGQGTKLEIKR |  |  | binds | 
humanized anti-TfR Fab 5H12 (VH5-C33D/Vk4) (Fab, V domains shown) VH: QVQLVQSGAEVKKPGASVKVSCKASGYSFTDYDINWVRQAPGQGLEWMGWIYPGSGNTRYSERFKGRVTITRDTSASTAYMELSSLRSEDTAVYYCAREDYYPYHGMDYWGQGTLVTVSS VL: DIVMTQSPDSLAVSLGERATINCRASESVDGYDNSFMHWYQQKPGQPPKLLIFRASNLESGVPDRFSGSGSGTDFTLTISSLQAEDVAVYYCQQSSEDPWTFGQGTKLEIKR |  |  | binds | 
humanized anti-TfR Fab 5H12 (VH5-C33Y/Vk4) (Fab, V domains shown) VH: QVQLVQSGAEVKKPGASVKVSCKASGYSFTDYYINWVRQAPGQGLEWMGWIYPGSGNTRYSERFKGRVTITRDTSASTAYMELSSLRSEDTAVYYCAREDYYPYHGMDYWGQGTLVTVSS VL: DIVMTQSPDSLAVSLGERATINCRASESVDGYDNSFMHWYQQKPGQPPKLLIFRASNLESGVPDRFSGSGSGTDFTLTISSLQAEDVAVYYCQQSSEDPWTFGQGTKLEIKR |  |  | binds | 
